Reference: US8957062B2, “Substituted cyclopropyl compounds, compositions containing such compounds and methods of treatment” (Merck Sharp & Dohme Corp., priority 2011, dated 2015)

Molecular target: T1, human GPR119 (Homo sapiens, UniProt Q8TDV5)
T1 sequence (Q8TDV5 1-308 limits assumed): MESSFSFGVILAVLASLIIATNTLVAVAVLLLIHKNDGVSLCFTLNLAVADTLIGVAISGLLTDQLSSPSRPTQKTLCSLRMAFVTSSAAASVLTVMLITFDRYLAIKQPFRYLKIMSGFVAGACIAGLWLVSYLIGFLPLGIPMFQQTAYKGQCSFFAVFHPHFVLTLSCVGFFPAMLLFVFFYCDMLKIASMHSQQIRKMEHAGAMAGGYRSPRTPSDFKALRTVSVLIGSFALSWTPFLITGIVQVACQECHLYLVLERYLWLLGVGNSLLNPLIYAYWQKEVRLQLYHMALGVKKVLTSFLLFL
Assay: Measurement of GPR119 signaling (cAMP assay) in cells stably transfected with human GPR119
Assay type: cell-based
Settings: stated in the example text, cAMP stimulation
Protocol: Measurement of GPR119 Signaling (Cyclic AMP (cAMP) Assay)
The adenylate cyclase assay was constructed following the LANCE™ cAMP Kit (Perkin Elmer, AD0264) instructions.
The reaction was stopped by incubating with the supplied detection buffer containing the europium chelate of the Eu-SA/Biotin-cAMP tracer for 3 hours. The assay was performed in duplicate in a 384 well plate for duplicate plates and fluorescence was measured at 665 nm. Basal activity was determined using a DMSO control and maximum response was defined as cAMP stimulation produced by an internal agonist control. Standard cAMP concentrations were assayed concurrently for conversion of fluorescence signal to cAMP level. The data was analyzed using 4-parameter curve fit in Microsoft Excel.
Measurement of GPR119 Signaling (cAMP Homogenous Time Resolved Fluorescence (HTRF) Assay)
Chinese hamster ovary (CHO) cell lines stably transfected with the permissive guanine nucleotide binding protein alpha 15 (Gα15) and murine GPR119 were maintained in DMEM media containing FBS, penicillin-streptomycin, puromycin, and G418 (geneticin). […] Agonist activation of the GPR119 receptor was measured in receptor transfected cells described above, treated with compounds of this invention, using a commercial homogenous time resolved fluorescence (HTRF) kit for measurement of cAMP (CisBio, Bedford, Mass.). […]

## CC(C)(C)COC(=O)N1CCC([C@H]2C[C@H]2CCOc2ccc(S(C)(=O)=O)cn2)CC1 [Example 14, neopentyl 4-((1R,2S)-2-(2-(5-(methylsulfonyl)pyridin-2-yloxy)ethyl)cyclopropyl)piperidine-1-carboxylate]
  EC50: 2 nM
